Measured values published in paper doi:10.1101/363747.

B1: Tif32 (eIF3a) (protein, UniProt O74760 1-932)
chain: MAPPQGKPENVLRLADELIALDQHSSALQSLHETIVLKRSRNAQGFSLEPIMMRFIELCVHLRKGKIAKEGLYTYKNAVQNTSVTAIENVVKHFIELANKRVQEAQEKADKISVEYVDDLEATETPESIMMSLVSGDLSKSRTDRALVTPWLKFLWDAYRTVLDILRNNARLEVMYQLIANSAFQFCLKYQRKTEFRRLCELLRSHLGNASKFSNAPHSINLNDAETMQRHLDMRFSQLNVAVELELWQEAFRSIEDIHSLLTFSKRAPAAVMLGNYYRKLIKIFLVCDNYLLHAAAWNRYFTFTNVQKPATANFVILSALSIPIIDANKLSGPSIEAEDAKSKNARLALLLNLSKTPTRETLIKDAISRGVLSFCDQAIRDLYQILEVEFHPLSICKKLQPIIKRLAESNDTAQYIRPLQQVILTRLFQQLSQVYDSISLKYVMDLATFEEPYDFNPGQIEKFIMNGNKKGAFSIRLNHIENSISFSSDLFSNPIKSSDSVSLQSTPSELITSQLTRIAKSLSSVLMRFDTDFCLLRKQQAEAAYERAQAGVEQERKAVIAQRSLLELRRGQADTLATQREAELAAQRALKQKQESEAESLRVQEEINKRNAERIRREKEAIRINEAKKLAEELKAKGGLEVNAEDLEHLDADKLRAMQIEQVEKQNKSMNERLRVIGKRIDHLERAYRREAIPLWEEDAKQQAEHDREIFYEREKQRKEVQERKHEQAIKDKKAFAQFASYIHAYKQNIDDERDKAYQEAYAKAKNVIDAERERQRKEIFEQKLAEAIREAEEEAARAAEEEANRELHEQEEAQKRAIEERTRAAREAKEREQREMAEKLERQRRIQQERDEEISRKLAEKAAARRANIGASSPSPGAWRRGGASAGGVSRDSPRYSRGGYSRGSVPPRETLAPSKGAYVPPSRRNQQQQ
B2: eIF3b (protein, UniProt Q10425 1-725)
chain: MSEILIEEIKDQIVVKDEEIDVSELEVKLNVTKPVGYDTVVVIEGAPVVEEAKQQDFFRFLSSKVLAKIGKVKENGFYMPFEEKNGKKMSLGLVFADFENVDGADLCVQELDGKQILKNHTFVVRKLNQLEKAFSTPDEFSFEEREFKEREHLRSWLTDYYGRDQFISYYGNRVSVNWNRKSDVPEQIVDRENWTETYVQWSPMGTYLVSLHLRGIQLWGGESWGMCARFLHPYVKFVDFSPNEKYLVSWSYEPVRLPPIGHPARETMPFTDDDEGKHCFVWDIASGRILRSFKIPPQPEGSKDGKKVIWPIFKWSADDKYLARVTVGQSISVYETPSLALVDKKTIKIDGVQNFEWCPVSDALGRDSKEQLLAYWTPEITNQPARVALISIPSKSTIRTKNLFNVSDCKLYWQSNGDYLCVKVDRHTKTKKSTFSNLEIFRIREKNIPVEVVDLKDVVLNFAWEPKSDRFAIISANDQVLNSTNVKTNLSFYGFEQKKNTPSTFRHIITFDKKTCNSLFMAPKGRFMVAATLGSSTQYDLEFYDLDFDTEKKEPDALANVQQIGSAEHFGMTELEWDPSGRYVTTSSTIWRHKLENGYRLCDFRGTLLREEMIGEFKQFIWRPRPPSPLTKEDMKKIRKKLKDYNRLFDEEDIAEQSSANRELAARRRQLISEWQKYRDEVIARVAEERAITGQPAITVPAEEEEIIQETVEEVISEEIEPVED
B3: eIF3c (protein, UniProt O14164 1-918)
chain: MSRFFKGGSSDSDAESVDSSEENRLTSSRLKKQDDSSSEEESSEEESASSSESESSEEESESEESEVEVPKKKAVAASEDSESDSESSEEEEETESEEDSEVSDESESESESESESEEESESEEESDESERSGPSSFLKKPEKEEAKPAGLKFLRGESSEESSDEEEGRRVVKSAKDKRYEEFISCMETIKNAMSSNNWIVVSNEFDHLNKVSQKCKEAGRNPPPYIEFLSALDQKLESADKAFIKSLDAANGRAFNALKQRVRKNNRQFQSDIDRYRKDPEGFMKPAELNEIPKPAGKAGQDEVIVDGVATRGIVAPTEGLGKPEEITPADIFKYLRAIFEARGKKSTDRSEQIRLLEKLSTIAVTDYQRLRVKVALLAVRFDINTGSGQYMPIDQWNAALTELHSILDIFDANPKIVIVEQVEDENEEEEEAIAAAENNNGVIQVQGSVVSFLERLDDEFTRSLQMIDPHTPEYIDRLKDETSLYTLLVRSQGYLERIGVVENTARLIMRRLDRVYYKPEQVIRANEEVAWRSFPPTFDLTITPRATTTTPDILIHSLCVYLYNNGVSLLRTRAMLCHIYHEALQNRFYKARDMLLMSHLQDSVHAADIATQILHNRTMVQIGLCAFRNGMVQETQYALQDISTTGRVKELLGQGIQAPKFGQFTPDQDRLDKQLVLPFHMHINLELLECVYLTCSMLMEIPAMAAASSTASDSRKRVISRPFRRMLEYIDRQLFVGPPENTREYIMQASKALADGEWRRCEEFIHAIKIWSLMPDADKIKQMLSEKIREEGLRTYLLAYAAFYDSVSLEFLATTFDLPVQRVTVIVSRLLSKREIHAALDQVHGAIIFERVEINKLESLTVSLSEKTAQLNEANEKLYEQKTQHTNPQENRRRDKGGSVKRRNERTENRNRSDMN
B4: eIF3d (protein, UniProt O94236 1-567)
chain: MATGFKLPELAPVKSAWGPPETEQIGGDIPYAPFSKGDRLGKIADWSVDQPKDGREQRGRQGAFAGRFRDQYQTYGYGASSIFGYQHSEDESSFSVIDRGSVNRTRTSARNGGTLLKVRGRGQNVQRGGRGGRYGSSGGRGAGDTVVSRSSGAGGARGRRFGWKDYDKHQRLRNASVTVGDDWQLLDEVEFSHLSKLNLAAAAPVTVDSYGYIYPYDKSFDKIHVKSEKPLQALDRVHYNPTTTEDPVIQKLALNSDANIFITDSILSLLMCSTRSVYPWDIVITHQSGKLFFDKREGGPFDYLTVNENAYDSPMDADNREGVNSPGALSVEATYINQNFCVQALRETEEEKYKLPHPNPFYNSKEQSEPLAAHGYIYRDVDLSLETDEKPVKLMVRTEVDGYVKNPANDVQYISIKALNEYDPKFTNVTGSVDWRSKLESQRGAVFATEMKNNSCKLARWTVEALLAGVDSMKVGFVSRSNARDAQHHGILGVVAYKPADLASQMNLSLSNGWGIVRTIADVCLKMPDGKYVLVKDPNRPILRLYSVPPNTFEEAAGPSLEASSTA
B5: eIF3g (Tif35), endogenous (protein, UniProt P78795 1-282)
chain: MSSSKSLDWADDEDYGTGLPSIQTFDNPDGTKTMIEFRIDDNGKKVKVTRVIRKTVITERVQHAVAERKKWKKFGKEAGKNSGVDARTTSVGENVQLRLQLGWTTTKEEEQDEAALAAAKVKAKGSSVVRCRACKGNHFTAQCPYKSIIGPVDEPPLDASPVSSRASGALGEKGRYIAPHLRAGSGRESGDSMFKRERDDSATLRVTNLSDDTREEELRDLFRRFGGIQRVYLAKDKETGRAKGFAFVSYYDRDCAIKARDRLDGYGWNNLILRCEFSKPRD
B6: eIF3i (Sum1), endogenous (protein, UniProt P79083 1-328)
chain: MRPIILQGHERPLTQIKYNHDGDLLFSCAKDKVINVWFSHNGERLGTYEGHTGAIWTCDINKSSTLMVSGAADNTMRLWDVKTGKQLYKWEFPTAVKRVEFNEDDTRILAVTEERMGYAGTVTVFRVPISESDAAAETPLYVITTRESKATVAGWSYLSKFLFTGHEDGSVSRYDAITGEFVESKQVHNSGSTITDLQFYPDRTYFITSCKDTTAKAIDVDSFEVIKTYLTDTPLNTSSFTPVQDFVILGGGQEARDVTTTAARQGKFEARFYHAILEEELGRVKGHFGPINTIAVHPKGTGYASGGEDGYVRVHFFDKNYFDFKYTL
B7: eIF3e (protein, UniProt O94513 1-501)
chain: MGSELKSTSPLAVKYDLSQKIMQHLDRHLIFPLLEFLSLRQTHDPKELLQAKYDLLKDTNMTDYVANLWTNLHGGHTDEDMANAFAEKRRSVLQELSELEEEVQGILGVLENPDLIAALRQDKGQNLQHLQEHYNITPERIAVLYKFAQFQYNCGNYGGASDLLYHFRAFSKDPELNASATWGKFASEILTVDWDGAMEELGKLREMVDSKSFKDSAVQLRNRTWLLHWSLFPLFNHANGCDTLCDLFFYTPYLNTIQTSCPWLLRYLTVAVVTNQNNANQKPRNPRQSYQRRMRDLVRIISQENYEYSDPVTSFISALYTEVDFEKAQHCLRECEEVLKTDFFLVSLCDHFLEGARKLLAEAYCRIHSVISVDVLANKLEMDSAQLIQLVENRNNPSVAAASNVAADQSTEDESIESTSTNVVADDLITEAETATEAEEPEPEVQFGFKAKLDGESIIIEHPTYSAFQQIIDRTKSLSFESQNLEQSLAKSISELKHATV

Molecular target: eIF3m-TAP (S. pombe)
Assay: affinity purification with mass spectrometry

Binder | binding
B1 | binds
B2 | binds
B3 | binds
B4 | binds
B5 | binds
B6 | binds
B7 | no binding

Results are given in words; binding and its absence hold for the method and conditions named. Binding seen in cells or lysates may run through a third protein. Here binding means that the protein was enriched with, or labelled near, the bait; the list need not be complete. A no says only that the protein was not detected with the bait.
